Reference: PMC4826181

By UniProt entry, the sequences of proteins in these tests, tags left out. Where a name states a change or a piece, a line headed by the entry shows the natural chain unless it says otherwise.
UniProt Q9P126: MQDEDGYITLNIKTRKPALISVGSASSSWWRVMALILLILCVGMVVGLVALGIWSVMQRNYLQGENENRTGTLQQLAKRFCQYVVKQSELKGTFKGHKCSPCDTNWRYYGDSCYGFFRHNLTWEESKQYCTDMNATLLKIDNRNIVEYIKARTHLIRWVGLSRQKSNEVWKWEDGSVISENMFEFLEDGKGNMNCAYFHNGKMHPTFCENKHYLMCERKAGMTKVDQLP

How the values were obtained:
[1] = target: T1, recombinant human podoplanin-Fc protein (human) (UniProt Q86YL7); assay: AlphaScreen or HTRF; Podoplanin-Fc (1 ng/well) first incubated with control or anti-podoplanin antibodies in a 96-well plate, then CLEC-2-(His)10 (30 ng/well); Nickel Chelate Donor beads and Protein A Acceptor beads; 30 min at RT; no IgG control taken as 100%; both purified
T1 sequence: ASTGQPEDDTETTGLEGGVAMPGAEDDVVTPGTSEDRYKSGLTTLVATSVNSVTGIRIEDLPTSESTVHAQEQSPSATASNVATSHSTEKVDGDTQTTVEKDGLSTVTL

[2] = target: T2, human podoplanin PLAG3-deletion mutant PDPN-Δ47–52, on CHO cells (human) (UniProt Q86YL7); assay: flow cytometry on cells; CHO cells stably expressing podoplanin WT or mutants incubated with 0.4 μg/mL CLEC-2-(His)10, then Alexa Flour 488-conjugated anti-penta-His antibody; peak values normalised to PDPN-WT/CHO; only the binder purified
T2 sequence: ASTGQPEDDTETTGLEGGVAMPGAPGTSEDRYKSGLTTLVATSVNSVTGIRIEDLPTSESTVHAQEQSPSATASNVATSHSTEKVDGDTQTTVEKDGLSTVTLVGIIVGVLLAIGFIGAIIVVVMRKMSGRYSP

[3] = target: T3, human podoplanin point mutant PDPN-D48A, on CHO cells (human) (UniProt Q86YL7); assay: as above
T3 sequence: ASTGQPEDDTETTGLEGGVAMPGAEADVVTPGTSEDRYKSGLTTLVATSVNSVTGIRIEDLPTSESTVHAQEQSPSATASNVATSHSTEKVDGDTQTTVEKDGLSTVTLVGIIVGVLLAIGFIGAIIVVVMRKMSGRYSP

[4] = target: T4, human podoplanin PLAG4-deletion mutant PDPN-Δ81–85, on CHO cells (human) (UniProt Q86YL7); assay: as above
T4 sequence: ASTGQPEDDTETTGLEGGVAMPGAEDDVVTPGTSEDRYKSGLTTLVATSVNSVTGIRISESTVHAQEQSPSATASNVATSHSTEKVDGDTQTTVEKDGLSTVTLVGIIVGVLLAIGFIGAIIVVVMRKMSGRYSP

[5] = target: T5, human podoplanin double point mutant PDPN-D48A/D82A, on CHO cells (human) (UniProt Q86YL7); assay: as above
T5 sequence: T3 sequence with D60A

[6] = target: T6, human podoplanin PLAG1-deletion mutant PDPN-Δ29–34, on CHO cells (human) (UniProt Q86YL7); assay: as above
T6 sequence: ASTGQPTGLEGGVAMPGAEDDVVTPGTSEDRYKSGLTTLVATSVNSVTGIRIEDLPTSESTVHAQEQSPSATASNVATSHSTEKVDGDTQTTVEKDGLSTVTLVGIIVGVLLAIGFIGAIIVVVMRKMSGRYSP

[7] = target: T7, human podoplanin point mutant PDPN-D82A, on CHO cells (human) (UniProt Q86YL7); assay: as above
T7 sequence: T3 sequence with A26D, D60A

[8] = target: T8, human podoplanin, wild type (PDPN-WT), expressed on CHO cells (human) (UniProt Q86YL7); assay: as above
T8 sequence: T3 sequence with A26D

[9] = target: T3, human podoplanin point mutant PDPN-D48A, on CHO cells (human); assay: flow cytometry on cells; competition: CHO/PDPN-WT or CHO/PDPN-D48A cells incubated with control IgG or anti-podoplanin mAbs (up to 100 μg/mL), then 0.4 μg/mL CLEC-2-(His)10, then Alexa Flour 488-conjugated anti-penta-His antibody; only the binder purified
[10] = target: T8, human podoplanin, wild type (PDPN-WT), expressed on CHO cells (human); assay: as above

binding [1]: binds | binding [2]: binds | binding [3]: binds | binding [4]: binds | binding [5]: binds weakly | binding [6]: binds | binding [7]: binds | binding [8]: binds | binding [9]: binds | binding [10]: binds
Substance: (His)10-tagged human CLEC-2 protein (from UniProt Q9P126) (receptor)

Where a chain is given by its changes, count along the chain named. No constants are given. Whether binding was seen depends on the method and setting. Binding can be weak; no strength is given. For some of these results: Sequences can lack the tags named with a protein.
